## Primary screen of a compound library

Measurements from “University of Dundee, Small-Polar-MMV Screening Library” (2021), ChEMBL document CHEMBL3988442.

Values are the deposited “Percent Effect”, in %. The record does not define 0% and 100%; most values in the screen are far below 50% and negative numbers occur (in some assays of this library far below -100). This is an unselected part of the compounds tested.

Mtb growth Cornell: 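Whole-cell assay for inhibitors of Mycobacterium tuberculosis growth, labelled Cornell in the record; the read-out is not stated. The concentration is filed as 10 mM, unlikely as a test dose, so the dose is not known. The record gives no direction; compounds strong in two other growth screens of this library score well above the rest, so higher reads as stronger inhibition. About 53,000 compounds were tested under these conditions; 1.7% (about 900) showed 50% or more at least once.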
Mtb heat-shock: 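Assay on Mycobacterium tuberculosis, filed only as a heat shock assay from Cornell; the read-out is not stated. The concentration is filed as 10 mM, unlikely as a test dose, so the dose is not known. Direction is inferred from retests: higher values go with stronger inhibition. Size under these conditions: about 69,000 compounds, about 930 of them at 50% or above in at least one test.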

CCc1ncc(C(=O)N(C)CCc2nc3cc(OC)ccc3[nH]2)cn1 gave Mtb growth Cornell: -13.3%; Mtb heat-shock: 11.85%. O=C(O)C(F)(F)F.[H][C@@]12CCCO[C@]1([H])[C@H](Oc1ccccn1)CN2S(=O)(=O)N(C)C read Mtb growth Cornell: 14.56%; Mtb heat-shock: 11.85%. CC1CN(Cc2ccccc2)CCCN1CCS(C)(=O)=O (stereo not drawn) gave Mtb heat-shock: 1.997%. With Cc1cc(O)cc(C2CCCN2C(=O)c2ccn(C)n2)n1 (stereo not drawn) the screen gave Mtb growth Cornell: -43.03%; Mtb heat-shock: -18.59%.

With Cc1nsc(NC(=O)NC2CCOCC2)n1 the screen gave Mtb growth Cornell: 8.106%; Mtb heat-shock: -19.32%. With Cc1nsc(N2CCN(CC(=O)NCc3ccc(F)cc3)CC2)n1 the screen gave Mtb growth Cornell: 22.63%; Mtb heat-shock: 12.31%. Result for O=C(Nc1ccccn1)C1CCN(Cc2cc3c(cc2O)OCO3)CC1 was Mtb growth Cornell: 9.073%; Mtb heat-shock: 24.37%. For CCn1cc(Cl)c(C(=O)NCc2cnn(C)c2)n1 the result was Mtb growth Cornell: 4.77%; Mtb heat-shock: -19.47%.

For CNC(=O)CN1CCCC12CCN(C(=O)c1ccoc1)CC2.O=C(O)C(F)(F)F the result was Mtb growth Cornell: 24.58%; Mtb heat-shock: 6.336%. With CCn1cc(CN2CCCN(C(=O)C3(C#N)CCCCC3)CC2)cn1 the screen gave Mtb growth Cornell: -5.483%; Mtb heat-shock: -12.11%. For CSc1nc2ccsc2c(=O)n1CC(=O)NC1CCCC1 the result was Mtb heat-shock: 14.72%. With FC(F)(F)C1CCc2nnc(CNCc3cccs3)n2C1 (stereo not drawn) the screen gave Mtb growth Cornell: -39.25%; Mtb heat-shock: -13.81%.

With O=C(NCc1ccco1)N1CCOC(c2ccccc2Cl)C1 (stereo not drawn) the screen gave Mtb growth Cornell: 0.7249%; Mtb heat-shock: 35.38%. For Cn1nc(CN2CCCC2)c2c1CN(C(=O)c1ccc[nH]1)CC2 the result was Mtb growth Cornell: 3.45%; Mtb heat-shock: -28.76%. For Cc1ccsc1CN(CCCN(C)C)Cc1ccccn1 the result was Mtb heat-shock: -28.23%. With Cc1ccc(OCC(=O)N(C)Cc2cccc(F)c2)cn1 the screen gave Mtb growth Cornell: 4.286%; Mtb heat-shock: 3.88%.

With CCNc1ncc(CN(Cc2ccccc2)CC(C)CO)cn1 (stereo not drawn) the screen gave Mtb growth Cornell: 26.05%; Mtb heat-shock: -18.17%. With Cc1ccc(C2CSCCN2C(=O)c2ccoc2C)o1 (stereo not drawn) the screen gave Mtb growth Cornell: 25.98%; Mtb heat-shock: -16.97%. CCC(NC(=O)c1cc(OC)c2c(c1)OCCO2)c1cccs1 (stereo not drawn) gave Mtb heat-shock: -1.939%. With CCCc1cc(C(=O)N2C[C@H](O)[C@@H](N3CCCC3)C2)ccn1 the screen gave Mtb growth Cornell: -4.552%; Mtb heat-shock: -9.023%.

With [H][C@]12CCC[C@@]1(COCC1CCOCC1)CN(S(=O)(=O)N(C)C)C2 the screen gave Mtb growth Cornell: -39.49%; Mtb heat-shock: -42.9%. Result for CC1(C)CCN(Cc2ccccc2-c2nc(C(C)(C)C)cc(=O)[nH]2)C1 was Mtb growth Cornell: 38.33%; Mtb heat-shock: 30.23%. COc1ccc(OC)c(C2CCN(C(=O)[C@H]3CC[C@@H](O)CC3)C2)c1 (stereo partly drawn) read Mtb growth Cornell: 28.77%; Mtb heat-shock: -8.308%. Result for CN(C)c1nccc(N(C)C2CCN(CC3CCOC3)CC2)n1 (stereo not drawn) was Mtb heat-shock: 7.632%.

COC(=O)c1cc(OCC2CCC2)cc(C(=O)N[C@@H](C)CO)c1 read Mtb growth Cornell: 18.7%; Mtb heat-shock: 3.262%. With COc1ccc2c(c1)nc1n2[C@@H](CNCc2ncccc2C)COC1 the screen gave Mtb heat-shock: -2.351%. With Cc1cccc2c1cnn2CCCNC(=O)C(C)C the screen gave Mtb growth Cornell: -10.53%; Mtb heat-shock: 7.927%. Result for CN1C(=O)CCc2cc(NC(=O)C3CCCC3)ccc21 was Mtb growth Cornell: -61.12%; Mtb heat-shock: 12.24%.

Result for CCOC(=O)[C@@H]1[C@@H](OC)C(=O)N(C)C12CCN(C(=O)C(CC)CC)CC2 was Mtb growth Cornell: 1.247%; Mtb heat-shock: -6.695%. For [H][C@]12CCCC(N(C)Cc3ccccn3)[C@@]1([H])CN(c1ncc(CC)cn1)C2 (stereo partly drawn) the result was Mtb growth Cornell: -0.9528%; Mtb heat-shock: 4.031%. Result for Cc1ncsc1C(=O)N1CCN(Cc2cscn2)CC1 was Mtb growth Cornell: 28.06%; Mtb heat-shock: 11.42%. For Cc1cccc(C2CCCN(C(=O)C3CCN(CC(N)=O)CC3)C2)c1 (stereo not drawn) the result was Mtb growth Cornell: 16.89%; Mtb heat-shock: 10.43%.

COc1cccc(C2SCC(=O)Nc3n[nH]cc32)c1OC(C)C (stereo not drawn) read Mtb growth Cornell: 24.4%; Mtb heat-shock: 11.14%. For Cn1nccc1NC(=O)Cn1ccc(-c2ccc3c(c2)OCO3)n1 the result was Mtb growth Cornell: 19.72%; Mtb heat-shock: 5.503%. With CCc1ccc(C(=O)N2CCCn3nnc(Cn4cccn4)c3C2)cc1 the screen gave Mtb growth Cornell: -38.06%; Mtb heat-shock: 11.35%. CC(C)c1nccc(C2(c3ccccc3Cl)CCNCC2)n1 gave Mtb growth Cornell: 2.975%; Mtb heat-shock: 13.99%.

For CCN1CCC2(CC1)CC(NCc1ccncc1)c1ccccc1O2.O=C(O)C(F)(F)F.O=C(O)C(F)(F)F.O=C(O)C(F)(F)F (stereo not drawn) the result was Mtb growth Cornell: -4.906%; Mtb heat-shock: -35.95%. For O=C(NC1CCC1)C1=NOC2(CCN(Cc3ccco3)C2)C1 (stereo not drawn) the result was Mtb growth Cornell: -39.72%; Mtb heat-shock: -9.603%. O=C(c1sccc1C1CC1)N1CCN(CC(F)(F)F)CC1 gave Mtb growth Cornell: -2.893%; Mtb heat-shock: -8.936%. O=C(Nc1c(N2CCCC2)cccc1N1CCCC1)c1ccccn1 gave Mtb growth Cornell: 47.66%; Mtb heat-shock: 104.6%.

CN(C)C(=O)CNC(=O)c1cc(Br)c2c(c1)OCCO2 read Mtb growth Cornell: 18.35%; Mtb heat-shock: -10.39%. Result for CNc1cc(C2CN(CC(=O)N(C)C)CCO2)nc(C)n1 (stereo not drawn) was Mtb growth Cornell: 6.218%; Mtb heat-shock: -6.769%. Result for CCCSCC(=O)N1CCN(c2ccc(C)cc2)CC1C (stereo not drawn) was Mtb growth Cornell: -3.218%; Mtb heat-shock: 9.448%.

Some entries from above, unchanged:

{"smiles": "CCOC(=O)[C@@H]1[C@@H](OC)C(=O)N(C)C12CCN(C(=O)C(CC)CC)CC2", "Mtb growth Cornell": 1.247, "Mtb heat-shock": -6.695}
{"smiles": "CC(C)c1nccc(C2(c3ccccc3Cl)CCNCC2)n1", "Mtb growth Cornell": 2.975, "Mtb heat-shock": 13.99}
{"smiles": "CC1CN(Cc2ccccc2)CCCN1CCS(C)(=O)=O", "stereo": "stereo not drawn", "Mtb heat-shock": 1.997}